These are yes or no findings as the source states them, for the method shown. Binding seen in cells or lysates may run through a third protein. Some entries that bind do so weakly or less than the wild type.
Target: murine Oct4 Q174A, Flag-tagged (mouse) (UniProt P20263)
Test: co-IP; HEK293 cells co-transfected with Sox2-Myc and Flag-tagged Oct4 WT or Q174A (or EGFP-Flag); lysis in 50 mM Tris-HCl pH 7.5, 150 mM NaCl, 1 mM EDTA, 10% glycerol, 0.5% Triton X-100; anti-Flag beads 4-6 h; washes with 300 mM NaCl; Western blot

Sequences of proteins named here, by UniProt entry; tags and fusion partners are left off. A change or cut given only in a name is not applied to a line headed by its entry.
UniProt P20263: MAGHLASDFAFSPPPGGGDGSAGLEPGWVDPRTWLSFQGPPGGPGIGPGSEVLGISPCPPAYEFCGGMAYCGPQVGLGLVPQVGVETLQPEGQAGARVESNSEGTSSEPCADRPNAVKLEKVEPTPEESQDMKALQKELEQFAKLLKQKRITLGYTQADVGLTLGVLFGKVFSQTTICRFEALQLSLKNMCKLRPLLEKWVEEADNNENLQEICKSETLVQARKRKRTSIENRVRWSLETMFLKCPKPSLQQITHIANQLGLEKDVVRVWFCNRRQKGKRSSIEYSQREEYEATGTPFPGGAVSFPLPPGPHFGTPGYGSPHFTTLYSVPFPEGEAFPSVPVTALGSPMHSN
UniProt P48432: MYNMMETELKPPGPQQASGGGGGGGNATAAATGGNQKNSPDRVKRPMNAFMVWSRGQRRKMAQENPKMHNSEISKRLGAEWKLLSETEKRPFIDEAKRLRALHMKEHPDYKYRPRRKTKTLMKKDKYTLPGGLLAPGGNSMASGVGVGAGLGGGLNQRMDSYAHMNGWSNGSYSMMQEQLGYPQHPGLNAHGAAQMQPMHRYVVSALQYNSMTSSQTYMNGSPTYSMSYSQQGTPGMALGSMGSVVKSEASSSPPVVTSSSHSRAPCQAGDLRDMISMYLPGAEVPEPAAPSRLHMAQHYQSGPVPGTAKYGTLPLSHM

## Sox2-Myc (from UniProt P48432 1-319)
  binding: binds

Source: PMC4753506
